Data taken from ChEMBL document CHEMBL3988442, “University of Dundee, Small-Polar-MMV Screening Library” (2021).

Chains of the proteins cited; added tags and fusions are not shown.
UniProt P9WPC5, whole entry: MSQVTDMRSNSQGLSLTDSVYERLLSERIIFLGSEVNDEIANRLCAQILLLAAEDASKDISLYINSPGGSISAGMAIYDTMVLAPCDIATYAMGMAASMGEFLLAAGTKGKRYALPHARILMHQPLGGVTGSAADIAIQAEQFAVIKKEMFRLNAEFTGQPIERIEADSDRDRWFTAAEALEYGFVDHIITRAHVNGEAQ
UniProt P9WPC3, whole entry partner: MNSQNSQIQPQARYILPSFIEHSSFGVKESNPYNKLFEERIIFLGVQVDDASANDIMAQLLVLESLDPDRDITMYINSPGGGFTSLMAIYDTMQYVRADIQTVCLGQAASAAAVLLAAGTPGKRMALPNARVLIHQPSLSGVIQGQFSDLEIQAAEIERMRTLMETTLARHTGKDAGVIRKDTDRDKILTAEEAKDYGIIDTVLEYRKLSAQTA

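Protease assay of ClpP1P2, read by the AMC dye that it sets free. Target: ClpP1P2, Mycobacterium tuberculosis (UniProt P9WPC5 and UniProt P9WPC3). Compounds at 50 µM. Direction is inferred from only a few compounds that gave an IC50; most scored high, so higher reads as stronger inhibition. Most other retested compounds had strongly negative values. Of about 69,000 compounds tested this way, about 10 (0.015%) reached 50% or more in at least one test.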

The filed quantity is “Percent Effect” (%). The record does not define 0% and 100%; most values in the screen are far below 50% and negative numbers occur (in some assays of this library far below -100). The compounds are a random part of those screened.

* CCN(C)S(=O)(=O)N(CC)Cc1ccc2c(c1)OCO2 : 5.863%
* Cc1ccc2c(n1)N(C)CCN(CCN1CCCC1)C2 : -0.6494%
* Cc1cc(CNC(=O)Cc2cccs2)ccc1S(C)(=O)=O : -7.617%
* CC(C)c1ncc(CN2CCC(O)(c3ccccc3F)CC2)cn1 : -17.73%
* CC(=O)N1C[C@@H]2CC[C@H](C1)N(S(=O)(=O)c1ccc(F)cc1Cl)C2 : -0.9845%
* Cc1ccc(N2CCCN(C(=O)c3cc(Cl)c[nH]3)CC2)nn1 : -9.121%
* Cc1cc(C(=O)NCC(F)(F)F)c2c(C3CCNCC3)noc2n1 : 24.76%
* CC(C)[C@H](N)C(=O)N1CCCC(C2=Nc3ccccc3S(=O)(=O)N2)C1 (stereo partly specified) : -0.5952%
* CCN(CC)Cc1ccc(C(=O)N2CCCC2Cn2cccn2)o1 (stereo unspecified) : -2.355%
* OC[C@@H](O)CN(CCC(F)(F)F)c1ncccn1 : 11.71%
* Cc1ccsc1CN(Cc1ncccc1C(=O)O)C1CC1 : -4.89%
* O=C(Cc1cccc(O)c1)NC1CCN(c2cccc(Cl)c2)C1 (stereo unspecified) : -16.21%
* O=C(c1ccnc(C2CCNCC2)c1)N1CCCC(CO)C1 (stereo unspecified) : -0.4023%
* Cc1ccccc1[C@@H]1CN(C(=O)c2ccc3[nH]nnc3c2)C[C@H]1C(=O)O : -11.43%
* OC(CN(Cc1ccccc1)Cc1ccccn1)c1cccs1 (stereo unspecified) : -9.637%
* Cc1nc(C(C)C)sc1C(=O)NCCNc1ncccn1 : -3.222%
* COc1ccc(NC(=O)N2CCC(c3noc(C)n3)CC2)cc1C : -9.108%
* Cc1nn(C)c(N2CCOCC2)c1CNC1CCS(=O)(=O)C1 (stereo unspecified) : 4.885%
* O=C1OCC(CO)N1Cc1cccc(Cl)c1F (stereo unspecified) : -12.28%
* CC(C)[C@H](NC(=O)NC1CCS(=O)(=O)C1)C(=O)NCc1ccccc1Cl (stereo partly specified) : -8.449%
* CC(C)c1nc(CN2CCCC(O)C2)cs1 (stereo unspecified) : 3.807%
* CC(C)Nc1cccc(CC2CCN(S(C)(=O)=O)CC2)n1 : -2.395%
* COCC1CC2(CCN(Cc3cccnc3)CC2)CN1C(C)C (stereo unspecified) : 7.543%
* CCc1n[nH]c(C(=O)NCCn2ccc(C)n2)c1C : 24.05%
* Cc1ccc(NCCCNC(=O)NCC2CCS(=O)(=O)C2)nc1 (stereo unspecified) : 2.55%
* COCCN1CCC(CNC(=O)C2(c3cccc(C)c3)CC2)C1 (stereo unspecified) : -15.36%
* O=C(NCCN1CCC(c2cccs2)CC1)c1ccccc1C(F)(F)F : -6.315%
* Cc1nn(C)c(C)c1C(=O)NCc1cc(N(C)C)nc2ccccc12 : -72.13%
* Cc1ccc(-c2nc(CNC3CCc4ncnn4C3)co2)cc1 (stereo unspecified) : -8.894%
* COc1ccnc(N2CCN(C(=O)c3ccc(Cl)o3)CC2)n1 : -37.15%
* O=c1[nH]c2cc3c(cc2cc1CN1CCCC1c1ccccn1)CCC3 (stereo unspecified) : -9.011%
* CN(C)c1nc2c(c(N(C)C)n1)CCN(C(=O)CN1CCC(O)CC1)C2 : -11.8%
* Cc1cccc(-c2noc([C@@H]3C[C@@H](O)CN3C3CCOCC3)n2)c1 : -9.011%
* CCC1(CC)Cc2ccccc2-c2nc(NCCCO)[nH]c(=O)c21 : -80.14%
* COc1ccc(C2CCCN2S(=O)(=O)c2cc(F)ccc2F)cc1 (stereo unspecified) : -6.249%
* COCCC1COC2(CCN(C(=O)CC3CCCC3)CC2)C1 (stereo unspecified) : 4.868%
* Cc1cc2nccc(C3CCCN(C(=O)c4cnccn4)C3)n2n1 (stereo unspecified) : -1.807%
* CS(=O)(=O)c1ccc(NC(=O)CSC(F)(F)F)cn1 : 0.9158%
* Cc1nn(C)c(C)c1CN(Cc1cccn1-c1ccccn1)C(C)C : -10.59%
* COCCn1c(CN2CCCO2)cnc1S(=O)(=O)CC1CCCCC1 : -19.48%
* Cc1ccccc1C(=O)NCc1ccnc(N(C)C)c1 : -28.47%
* O=S1(=O)CCC(N2CCN(c3cc(C(F)(F)F)ccn3)CC2)C1 (stereo unspecified) : 3.958%
* CCO[C@@H]1CC[C@H]2[C@H]1OCCN2C(=O)c1ccc(OC)c(F)c1 : -1.057%
* CC(=O)N[C@@H]1CN(c2nc(CO)cs2)C[C@H]1c1ccc(C)o1 : -11.74%
* Cc1ccc(S(=O)(=O)NCCc2cccnc2)cc1C : 15.99%
* CCc1ncc(S(C)(=O)=O)c(C2CCCNC2)n1 (stereo unspecified) : -6.343%
* Cc1nc(C2CCCN(C(=O)Cn3ccccc3=O)C2)no1 (stereo unspecified) : -2.062%
* CN1CCN([C@@H]2CN(C(=O)c3ccsc3)[C@@H]3CCCO[C@H]23)CC1 : 0.4772%
* CCSCCC(=O)NS(=O)(=O)c1ccc2c(c1)OCCO2 : 13.74%

For reference, 5 entries once more:

Result for Cc1nc(C(C)C)sc1C(=O)NCCNc1ncccn1 was -3.222%.
Result for CC(C)[C@H](NC(=O)NC1CCS(=O)(=O)C1)C(=O)NCc1ccccc1Cl (stereo partly specified) was -8.449%.
Result for CCSCCC(=O)NS(=O)(=O)c1ccc2c(c1)OCCO2 was 13.74%.
Result for CCc1n[nH]c(C(=O)NCCn2ccc(C)n2)c1C was 24.05%.
Result for CCC1(CC)Cc2ccccc2-c2nc(NCCCO)[nH]c(=O)c21 was -80.14%.